Molecules are shown by their SMILES.

Experiment [1] concerns SB.msgc-1. Nature of the experiment: area under the dose-response curve of % viability (trapezoidal, 11 doses) (% viability x log10 concentration); higher = less cytotoxic. As to conditions: SB.msgc-1 (sporadic gastric cancer). The essentials:
(§1)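 Compound in DMSO was pinned (23 nL) at 11 threefold-diluted concentrations into wells containing 500 patient-derived gastric cancer cells, hereditary or sporadic, in 5 μL medium per 1536 well. Cells were incubated for 48 h, then exposed to CellTiter-Glo for 30 min at room temperature. Luminescence was measured on a ViewLux. The values are viability normalised to DMSO, either at the highest concentration or as trapezoidal area under the curve.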

Experiment [2] relates to SB.mhdgc-1. The experiment is described as above. As to conditions: SB.mhdgc-1 (hereditary c.1380delA CDH1 gastric cancer). The gist of the method: as §1
Experiment [3] concerns SB.msgc-1. In words: viability at highest tested concentration (MAXR) relative to DMSO; higher = less cytotoxic. The settings on record: SB.msgc-1 (sporadic gastric cancer). The gist of the method:
as §1

Experiment [4] relates to SB.mhdgc-1. The description is as above. As to conditions: SB.mhdgc-1 (hereditary c.1380delA CDH1 gastric cancer). The gist of the method: as §1

The term viability denotes a read-out of living cells in per cent, often relative to untreated cells. Turning to `N[S+](=O)([O-])c1cc(C(=O)O)c(NCc2ccco2)cc1Cl` [Furosemide] (top concentration 46.0829 µM), the results for the “area under the dose-response curve” value with SB.msgc-1 [1] and with SB.mhdgc-1 [2] were 478 and 448, respectively. Moreover, the figures for the viability with SB.msgc-1 [3] and in the experiment with SB.mhdgc-1 [4] were 100% and 105%, respectively.

For the compound `Cc1cnc(C(=O)NCCc2ccc([S+](=O)([O-])NC(=O)NC3CCCCC3)cc2)cn1` [Glipizide] (top concentration 46.0829 µM), the “area under the dose-response curve” value with SB.msgc-1 [1] turned out to be 379; with SB.mhdgc-1 [2], 551. In addition, the viability was 45.2% in the experiment on SB.msgc-1 [3] and 70.1% in the experiment with SB.mhdgc-1 [4].

Regarding `O[C@@H]1C\C(=C/C(O)C1O)C(O)=O` (stereo not given in full) [Shikimic acid] (top concentration 46.0829 µM), the “area under the dose-response curve” value in the experiment with SB.msgc-1 [1] came out at 541; with SB.mhdgc-1 [2], 636. The viability in the experiment with SB.msgc-1 [3] worked out at 111%; in the experiment on SB.mhdgc-1 [4], 118%.

Take `Cc1cc(N[S+](=O)([O-])c2ccc(N)cc2)no1` [Sulfamethoxazole] (top concentration 46.0829 µM): the entries for the “area under the dose-response curve” value with SB.msgc-1 [1] and in the experiment on SB.mhdgc-1 [2] were 473 and 520, respectively. Moreover, the viability in the experiment on SB.msgc-1 [3] is 63.9%; in the experiment with SB.mhdgc-1 [4], 83.9%.

Consider `Nc1ccc([S+](N)(=O)[O-])cc1` [Sulfanilamide] (top concentration 46.0829 µM), for which the results for the “area under the dose-response curve” value in the experiment on SB.msgc-1 [1] and in the experiment with SB.mhdgc-1 [2] were 567 and 579, respectively. For the same compound, the viability amounted to 118% with SB.msgc-1 [3] and 105% in the experiment on SB.mhdgc-1 [4].

The values above are taken from the supplement of paper PMC5412046.
